Taken from: PubChem BioAssay AID1224826 (NIAID, 2016)

- Test: 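Knock-downs that raise or lower Tnf reporter signal after endotoxin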 (primary screen)
- Cell system: RAW264.7 G9 macrophages from mouse bearing reporters for p65 (GFP) and the Tnf promoter (mCherry)
- Knock-down reagent: siRNA pool against mouse genes, 100 nM
- Timing: 16 h of LPS stimulation, after 2 days of siRNA transfection
- Treatment: bacterial lipopolysaccharide (Salmonella minnesota R595), 10 ng/ml
- Detection: 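Imaged Tnf reporter mCherry in nuclei, minus background, normalised per plate to the median and expressed as robust z-scores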
- Reading the numbers: Tnf reporter robust z-score: higher = stronger Tnf promoter reporter signal after LPS
- Hit rule: 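Called active when robust z-score is at most -1.3, matching the median of the Tlr4 knock-down control, or over 3; control wells and wells with under 50 cells never active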
- Calls: active = Tnf reporter clearly lowered or raised; inactive = no clear change in Tnf reporter
The whole screen tested about 17,000 reagents; shown is a part drawn at random. About 1,110 of them (6.6%) were called active. 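Active means lowered or raised reporter signal; replicate intensities are raw and not normalised per plate.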 Unmarked entries are inactive. Further read-outs or replicates are left out here. No sequences are given here.

For Cyp4v3, the entry reads Tnf reporter robust z-score 0.08; fewer than 50 cells in well enough cells in well. Depletion of Sirt2 gave: Tnf reporter robust z-score 1.51; fewer than 50 cells in well enough cells in well. Knock-down of Npas4 came out at: Tnf reporter robust z-score 0.94; fewer than 50 cells in well enough cells in well. After knock-down of Arl5a the results were Tnf reporter robust z-score -0.64; fewer than 50 cells in well enough cells in well. For Vmn1r185, the entry reads Tnf reporter robust z-score -1.23; fewer than 50 cells in well enough cells in well. Silencing of Ppp1r3c came out at: Tnf reporter robust z-score 2.3; fewer than 50 cells in well enough cells in well.

Lancl3 scored Tnf reporter robust z-score 0.6; fewer than 50 cells in well enough cells in well. Knock-down of Pcdhb12 resulted in: Tnf reporter robust z-score -0.25; fewer than 50 cells in well enough cells in well. Donson scored fewer than 50 cells in well fewer than 50 cells per well; well left out of calls. For Insr, the entry reads Tnf reporter robust z-score 1.08; fewer than 50 cells in well enough cells in well. Against Tirap the deposit lists Tnf reporter robust z-score -1.18; fewer than 50 cells in well enough cells in well. Ephb3 gave Tnf reporter robust z-score -0.66; fewer than 50 cells in well enough cells in well.

After knock-down of Nelfb the results were Tnf reporter robust z-score 1.63; fewer than 50 cells in well enough cells in well. Depletion of Plekha1 came out at: Tnf reporter robust z-score 0.5; fewer than 50 cells in well enough cells in well. Against Arcn1, the entry reads fewer than 50 cells in well fewer than 50 cells per well; well left out of calls. For Elane, the values are Tnf reporter robust z-score -0.22; fewer than 50 cells in well enough cells in well. Knock-down of Igfbp4 resulted in: Tnf reporter robust z-score 0.85; fewer than 50 cells in well enough cells in well. Oaf showed Tnf reporter robust z-score -0.49; fewer than 50 cells in well enough cells in well.

Ces1c gave Tnf reporter robust z-score -0.21; fewer than 50 cells in well enough cells in well. For Slc4a3, the entry reads Tnf reporter robust z-score 1.49; fewer than 50 cells in well enough cells in well. Rtl8c showed fewer than 50 cells in well fewer than 50 cells per well; well left out of calls. For Avpi1, the values are Tnf reporter robust z-score 0.67; fewer than 50 cells in well enough cells in well. Against Or2t1, the entry reads Tnf reporter robust z-score -0.41; fewer than 50 cells in well enough cells in well. Pex11a scored Tnf reporter robust z-score -1.05; fewer than 50 cells in well enough cells in well.

Mto1 gave Tnf reporter robust z-score 0.38; fewer than 50 cells in well enough cells in well. Silencing of Rab6b gave: Tnf reporter robust z-score -1.02; fewer than 50 cells in well enough cells in well. With knock-down of Nog, the record shows Tnf reporter robust z-score -0.5; fewer than 50 cells in well enough cells in well.

Just “Tnf reporter robust z-score”, for 3 of the entries above:
Sirt2	1.51
Npas4	0.94
Arl5a	-0.64
